# Measurements reported in the supplement of paper PMC3334620.
# Whole data set: some 33,000 sequences, median “E-score (-0.5 to 0.5)” near -8e-05, cut for the highest 2% near 0.23. This is one part of the list.
# Molecular target: T1, Nrg2 (UniProt P38082)
# T1 sequence: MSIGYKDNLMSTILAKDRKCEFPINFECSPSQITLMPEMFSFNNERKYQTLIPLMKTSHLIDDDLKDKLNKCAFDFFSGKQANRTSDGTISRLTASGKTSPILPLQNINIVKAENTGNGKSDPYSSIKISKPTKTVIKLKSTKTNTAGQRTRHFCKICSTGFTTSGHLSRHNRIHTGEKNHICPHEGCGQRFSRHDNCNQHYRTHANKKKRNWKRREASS
# Test: PBM E-score (8-mer binding enrichment) (E-score (-0.5 to 0.5)); higher = stronger / more preferred TF binding
# Conditions: protein concentration: 100 nM; construct: GST-full length
# Outline: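 Using PURExpress in vitro transcription/translation, GST-tagged yeast transcription factors were made in full-length or DNA-binding-domain form. These were applied at about 100-200 nM to double-stranded universal all-10-mer Agilent arrays, and bound protein was detected with fluorescent anti-GST. Scans were normalised with masliner before the Universal PBM Analysis Suite assigned E-scores to ungapped eight-base words pooled with their reverse complements.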
row,Sequence,PBM E-score
1,TAAGTATA,0.205
2,GCGAGTAA,0.198
3,ATCACCGA,-0.124
4,TCCCCAGA,-0.0388
5,ATAGACCA,0.0312
6,CGGGTTAC,0.0201
7,ACTTTGCT,-0.101
8,GCGGATTA,0.1
9,TAAGGTAA,0.0784
10,GCTGCAGC,0.121
11,ATCATTCA,0.0768
12,CGATTAGC,0.007
13,AACGGATC,0.199
14,CGCTAGAG,-0.0528
15,CTTCAGGC,-0.151
16,CTAGAGAG,-0.205
17,CTACCGTC,-0.12
18,GTGTAAGA,-0.0727
19,GGAACGAA,0.088
20,ACCCCTTA,0.178
21,CAAGGGTG,0.0522
22,GAGGTGTA,-0.141
23,GCTTCGAA,0.0932
24,AGACAACT,0.168
25,CTGCGCGA,-0.0667

row,Sequence,PBM E-score
1,ATATGTGG,0.131
2,GCCTTTAA,0.0472
3,AATTCGGC,0.0379
4,CGTCATAC,0.105
5,GAGAGAGA,0.00804
6,AACGGTAT,-0.00255
7,CGCACAGC,-0.0765
8,CGCGGATC,0.037
9,AATGGGTA,0.0928
10,GCCCCTCC,-0.0501
11,AGGACTTA,-0.219
12,CCCAGTAC,-0.0672
13,CCTGCATA,-0.0556
14,AAAGCATC,-0.00854
15,TACTCGAA,-0.0855
16,AAGTAAGG,0.159
17,AGTTCCCC,-0.0856
18,AATCGACC,0.126
19,ATGGGGAA,0.222
20,GTGATCAC,-0.0973
21,AGTGAAGC,0.054
22,AAGGGGGC,-0.14
23,AAATCTGG,-0.00921
24,AGCTGAAC,-0.0688
25,GGTAAACA,0.0404

row,Sequence,PBM E-score
1,ACTGTGGG,-0.0564
2,ATATAATG,0.0549
3,CCGGGCAA,-0.145
4,CGTAGATA,-0.0208
5,AGATTGCA,0.109
6,GCGACACA,-0.0338
7,ATCGTAGG,-0.0695
8,CACCAGTC,-0.245
9,CCGCGAGC,-0.0331
10,GCGTTACC,0.0142
11,AATGTGCC,-0.0383
12,GGGAGACA,0.0155
13,GTGTCGCA,-0.0996
14,TCCTTTAA,-0.0214
15,GAGTAGCC,-0.168
16,CCCGCGTC,0.117
17,CGAGTGAC,-0.0664
18,ATGTTGCA,0.137
19,AAAGGTCA,0.00103
20,GTGCCACA,-0.13
21,AGCGACGA,0.0107
22,TACCATAA,0.158
23,GGGACGAC,0.0254
24,TACAATAA,0.0523
25,ATTGTCAC,0.0203

row,Sequence,PBM E-score
1,GCCCAATA,0.0704
2,AGAGACCG,-0.198
3,CCTAACCA,0.0503
4,TCACCAGA,-0.245
5,GGGTAGCA,-0.0316
6,GGTCGTTA,-0.00795
7,CCCCGCTA,0.0985
8,CACTGCCC,-0.0684
9,AGGCGGCG,-0.0115
10,CGGCCGTC,-0.0437
11,CATCCGAA,0.168
12,AAAGCGGA,-0.00417
13,GCCGTATA,0.141
14,CATGGAGC,0.0479
15,GCACCTCC,-0.211
16,CTTGGAGC,-0.0347
17,CGTTAAAA,-0.15
18,CGGGTAAG,-0.13
19,ACTATCCC,-0.0916
20,GGAACACA,0.097
21,ACCCCCGG,-0.314
22,AAGAGCGC,0.0881
23,AGATGCGC,0.0467
24,GATTGCAA,0.222
25,ACAGTAGC,-0.0757

# Quoted at random: 6 records from the list.
row,Sequence,PBM E-score
4,TCACCAGA,-0.245
11,CATCCGAA,0.168
20,GGAACACA,0.097
23,AGATGCGC,0.0467
15,GCACCTCC,-0.211
16,CTTGGAGC,-0.0347

# Following part:

row,Sequence,PBM E-score
1,AGAGGTCC,0.107
2,CTGAGAGC,-0.121
3,ACTATAAC,-0.0177
4,CGAACTAC,0.136
5,ACGTAGAC,-0.244
6,GCCGACGA,0.0149
7,CGATTCGC,0.0756
8,CCAAGAAG,-0.101
9,CCGCATAA,0.195
10,CTTTCGTC,0.0112
11,AAATCTTA,-0.00495
12,ACTATTCG,0.193
13,CTGACATA,-0.114
14,CGGCACTA,0.0799
15,ACCGAGCC,-0.186
16,CCAATCGG,-0.0318
17,TACTAGGA,-0.0465
18,AGGACACT,-0.213
19,GGCGCACA,0.0256
20,GACGAGAA,0.103
21,AGAAAAGC,0.0021
22,TAATATCA,0.0975
23,CGTAAAGC,-0.299
24,ATCTTACA,0.0207
25,CTCATCCA,-0.0151

# A few values from the list:
# PBM E-score with AGAAAAGC reads 0.0021
# PBM E-score with CGGCACTA reads 0.0799
# PBM E-score with CGAACTAC reads 0.136
# PBM E-score with AGAGGTCC reads 0.107

# Remaining list, next part

row,Sequence,PBM E-score
1,TTGGGAAA,0.201
2,CCCGGTAG,-0.117
3,CCCGCTCA,-0.0101
4,ATGGCCGG,-0.116
5,AGAAGGAG,-0.236
6,AACGCCAA,0.0978
7,GAGTGATA,0.0725
8,GACTGGCA,-0.148
9,CAATTGGG,-0.0646
10,AGCAATCG,0.0745
11,CTGGGCGC,-0.0979
12,AGGATTGA,0.0965
13,AGAACCAA,-0.00112
14,ACCCAATC,0.11
15,CATTGTTA,-0.0333
16,CTCTCTGA,-0.0253
17,CTAACCGA,-0.0854
18,CATTATGG,-0.117
19,CGCATGGA,0.00237
20,CCTTCGCG,0.111
21,ATCTTGTC,0.121
22,CATTCCAG,-0.112
23,GGAACCCA,0.0556
24,AGTGTGGC,-0.00753
25,ATGTGGCC,0.11

row,Sequence,PBM E-score
1,GATCGAGA,0.0356
2,CAAAACCG,0.0961
3,AAGCGAGG,0.00432
4,CGGAATGA,0.0468
5,AGACAGAG,0.0386
6,ATGCAGCC,-0.041
7,CGACACAC,-0.00881
8,ATTGGTTC,0.0808
9,ATTGCGCA,0.143
10,ATACGGTC,-0.163
11,GGACTCGA,-0.304
12,TACCACGA,-0.0263
13,CGAAGCTC,-0.169
14,ACACCACC,-0.279
15,GGCTTCTA,-0.075
16,ATTCTGTG,0.185
17,GCCATTCC,-0.0927
18,TAACATAA,0.147
19,GACCGCTA,-0.158
20,GAATGCTA,-0.066
21,GGTATAAA,0.0672
22,CCTTCATC,-0.107
